Results: the supplement of paper PMC8728848
The list shows a part of the results.

How the values were obtained:
Experiment in all cases: glycan array binding signal (z-score within array); higher = stronger binding
Details in all cases: glycan notation: IUPAC condensed, linker removed
[1] = target: Gal(b1-4)GlcNAc(b1-3)Gal(b1-4)GlcNAc(b1-6)[Gal(b1-3)]GalNAc
Method in brief: (§1)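 The Consortium for Functional Glycomics database supplied 3228 glycan arrays, of which those lacking an available protein sequence were dropped. The binding signal, a within-array Z-score, was averaged across arrays of the same protein sequence and across linkers. Negative scores can be read as non-binding.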

[2] = target: Gal(b1-4)GlcNAc(b1-3)Gal(b1-4)[Fuc(a1-3)]GlcNAc(b1-3)Gal(b1-4)[Fuc(a1-3)]GlcNAc
Method in brief: as §1

[3] = target: Gal(b1-4)GlcNAc(b1-3)GalNAc
Method in brief: as §1

[4] = target: Gal(b1-4)GlcNAc(b1-3)[Fuc(a1-3)GlcNAc(b1-6)]Gal(b1-4)Glc
Method in brief: as §1

[5] = target: Gal(b1-4)GlcNAc(b1-3)[Gal(b1-4)GlcNAc(b1-6)]Gal(b1-4)GlcNAc
Method in brief: as §1

[6] = target: Gal(b1-4)GlcNAc(b1-3)[GlcNAc(b1-6)]Gal(b1-4)GlcNAc
Method in brief: as §1

[7] = target: Gal(b1-4)GlcNAc(b1-6)Gal(b1-4)GlcNAc
Method in brief: as §1

[8] = target: Gal(b1-4)GlcNAc(b1-6)GalNAc
Method in brief: as §1

[9] = target: Gal(b1-4)GlcNAc(b1-6)[Gal(b1-3)]GalNAc
Method in brief: as §1

[10] = target: Gal(b1-4)GlcNAc(b1-6)[Gal(b1-4)GlcNAc(b1-3)]GalNAc
Method in brief: as §1

[11] = target: Gal(b1-4)GlcNAc6P
Method in brief: as §1

[12] = target: Gal(b1-6)Gal
Method in brief: as §1

[13] = target: Gal3S(b1-3)GalNAc
Method in brief: as §1

[14] = target: Gal3S(b1-3)GlcNAc
Method in brief: as §1

[15] = target: Gal3S(b1-3)[Fuc(a1-4)]GlcNAc
Method in brief: as §1

[16] = target: Gal3S(b1-4)Glc
Method in brief: as §1

[17] = target: Gal3S(b1-4)Glc6S
Method in brief: as §1

[18] = target: Gal3S(b1-4)GlcNAc
Method in brief: as §1

[19] = target: Gal3S(b1-4)[Fuc(a1-3)]Glc6S
Method in brief: as §1

[20] = target: Gal3S(b1-4)[Fuc(a1-3)]GlcNAc
Method in brief: as §1

[21] = target: Gal3S(b1-4)[Fuc(a1-3)]GlcNAc6S
Method in brief: as §1

[22] = target: Gal3S4S(b1-4)GlcNAc
Method in brief: as §1

[23] = target: Gal3S6S(b1-4)GlcNAc
Method in brief: as §1

[24] = target: Gal3S6S(b1-4)GlcNAc6S
Method in brief: as §1

[25] = target: Gal4S(b1-4)GlcNAc
Method in brief: as §1

[26] = target: Gal4S6S(b1-4)GlcNAc
Method in brief: as §1

[27] = target: Gal6P(b1-4)GlcNAc
Method in brief: as §1

[28] = target: Gal6S(b1-3)GlcNAc
Method in brief: as §1

[29] = target: Gal6S(b1-3)GlcNAc6S
Method in brief: as §1

[30] = target: Gal6S(b1-4)Glc
Method in brief: as §1

[31] = target: Gal6S(b1-4)Glc6S
Method in brief: as §1

[32] = target: Gal6S(b1-4)GlcNAc
Method in brief: as §1

[33] = target: Gal6S(b1-4)GlcNAc6S
Method in brief: as §1

[34] = target: GalNAc(a1-3)Gal
Method in brief: as §1

[35] = target: GalNAc(a1-3)GalNAc
Method in brief: as §1

[36] = target: GalNAc(a1-3)GalNAc(b1-3)Gal(a1-4)Gal(b1-4)Glc
Method in brief: as §1

[37] = target: GalNAc(a1-3)GalNAc(b1-3)Gal(a1-4)Gal(b1-4)GlcNAc
Method in brief: as §1

[38] = target: GalNAc(b1-3)Gal
Method in brief: as §1

[39] = target: GalNAc(b1-3)Gal(a1-4)Gal(b1-4)GlcNAc
Method in brief: as §1

[40] = target: GalNAc(b1-3)Gal(a1-4)Gal(b1-4)GlcNAc(b1-3)Gal(b1-4)Glc
Method in brief: as §1

[41] = target: GalNAc(b1-3)Gal(a1-6)Gal(b1-4)Glc
Method in brief: as §1

[42] = target: GalNAc(b1-3)GalNAc
Method in brief: as §1

[43] = target: GalNAc(b1-3)GlcNAc
Method in brief: as §1

[44] = target: GalNAc(b1-4)Gal(b1-4)Glc
Method in brief: as §1

[45] = target: GalNAc(b1-4)GlcNAc
Method in brief: as §1

[46] = target: GalNAc(b1-4)GlcNAc(b1-2)Man
Method in brief: as §1

[47] = target: GalNAc(b1-4)GlcNAc(b1-2)Man(a1-3)[GalNAc(b1-4)GlcNAc(b1-2)Man(a1-6)]Man(b1-4)GlcNAc(b1-4)GlcNAc
Method in brief: as §1

[48] = target: GalNAc(b1-4)GlcNAc(b1-3)GalNAc(b1-4)GlcNAc
Method in brief: as §1

[49] = target: GalNAc(b1-4)GlcNAc6S
Method in brief: as §1

[50] = target: GalNAc(b1-6)GalNAc
Method in brief: as §1

[51] = target: GalNAc3S(b1-4)GlcNAc
Method in brief: as §1

[52] = target: GalNAc3S(b1-4)GlcNAc3S
Method in brief: as §1

[53] = target: GalNAc3S(b1-4)[Fuc(a1-3)]GlcNAc
Method in brief: as §1

[54] = target: GalNAc4S6S(b1-4)GlcNAc
Method in brief: as §1

[55] = target: GalNAc6S(b1-4)GlcNAc
Method in brief: as §1

[56] = target: Glc(a1-4)Glc
Method in brief: as §1

[57] = target: Glc(a1-4)Glc(a1-4)Glc(a1-4)Glc
Method in brief: as §1

[58] = target: Glc(a1-6)Glc(a1-6)Glc
Method in brief: as §1

[59] = target: Glc(a1-6)Glc(a1-6)Glc(a1-6)Glc
Method in brief: as §1

[60] = target: Glc(b1-4)Glc
Method in brief: as §1

[61] = target: Glc(b1-6)Glc
Method in brief: as §1

[62] = target: GlcA(b1-3)Gal
Method in brief: as §1

[63] = target: GlcA(b1-3)GlcNAc
Method in brief: as §1

[64] = target: GlcA(b1-6)Gal
Method in brief: as §1

[65] = target: GlcA3S(b1-3)Gal(b1-4)GlcNAc(b1-2)Man
Method in brief: as §1

[66] = target: GlcA3S(b1-3)Gal(b1-4)GlcNAc(b1-3)Gal(b1-4)Glc
Method in brief: as §1

[67] = target: GlcNAc(a1-3)Gal(b1-4)GlcNAc
Method in brief: as §1

[68] = target: GlcNAc(a1-4)Gal(b1-3)GlcNAc
Method in brief: as §1

[69] = target: GlcNAc(a1-4)Gal(b1-4)GalNAc
Method in brief: as §1

[70] = target: GlcNAc(a1-4)Gal(b1-4)GlcNAc
Method in brief: as §1

[71] = target: GlcNAc(a1-4)Gal(b1-4)GlcNAc(b1-3)Gal(b1-4)Glc
Method in brief: as §1

[72] = target: GlcNAc(a1-4)Gal(b1-4)GlcNAc(b1-3)Gal(b1-4)GlcNAc
Method in brief: as §1

[73] = target: GlcNAc(a1-4)Gal(b1-4)GlcNAc(b1-3)Gal(b1-4)GlcNAc(b1-3)Gal(b1-4)GlcNAc
Method in brief: as §1

[74] = target: GlcNAc(a1-4)Gal(b1-4)GlcNAc(b1-3)Gal(b1-4)[Fuc(a1-3)]GlcNAc(b1-3)Gal(b1-4)[Fuc(a1-3)]GlcNAc
Method in brief: as §1

[75] = target: GlcNAc(a1-6)Gal(b1-4)GlcNAc
Method in brief: as §1

B1: SP15308F-bth-333-19-333 (Bacteroides thetaiotaomicron) (protein)
chain: SCNNEWESEQYVQMVSFKAPVNAQGVTPIYIRYKPEGKVTYQLPLIVSGSTMNSKDLNVHVGLDLDTLDVLNVEHFGSRKELFFKPLENKYYEFPETVQIPAGECTSLLPIDFALKDLDQVDKWVLPLAIQSNDPSHNYQANPRKFYRRAMLRISPFNDYSGQYSATAYKVYFKGNEKEAIVPEYHTSYVIDDKTIFFYAGLIDIDRLDRKYYKIKFEFTEEKIDLQTRKLKISSDNEDINLVVKGQPSYTVEEEMDATRPYLKHIYVTINNLEYEFTDYTSVPGYPLEYVVKGSLTMERKINTQIPDEDQAIEW
glycan array binding signal (z-score) [1]: -0.045 | glycan array binding signal (z-score) [2]: 0.753 | glycan array binding signal (z-score) [3]: -1.06 | glycan array binding signal (z-score) [4]: -0.005 | glycan array binding signal (z-score) [5]: -0.437 | glycan array binding signal (z-score) [6]: 0.081 | glycan array binding signal (z-score) [7]: -0.409 | glycan array binding signal (z-score) [8]: 1.64 | glycan array binding signal (z-score) [9]: -0.606 | glycan array binding signal (z-score) [10]: 0.65 | glycan array binding signal (z-score) [11]: -1.08 | glycan array binding signal (z-score) [12]: -0.244 | glycan array binding signal (z-score) [13]: -0.437 | glycan array binding signal (z-score) [14]: 1.07 | glycan array binding signal (z-score) [15]: -0.119 | glycan array binding signal (z-score) [16]: -0.06 | glycan array binding signal (z-score) [17]: -0.577 | glycan array binding signal (z-score) [18]: 0.14 | glycan array binding signal (z-score) [19]: 1.88 | glycan array binding signal (z-score) [20]: -0.163 | glycan array binding signal (z-score) [21]: 0.007 | glycan array binding signal (z-score) [22]: 0.361 | glycan array binding signal (z-score) [23]: -0.807 | glycan array binding signal (z-score) [24]: 0.556 | glycan array binding signal (z-score) [25]: 0.397 | glycan array binding signal (z-score) [26]: -0.116 | glycan array binding signal (z-score) [27]: -0.638 | glycan array binding signal (z-score) [28]: -0.179 | glycan array binding signal (z-score) [29]: 0.574 | glycan array binding signal (z-score) [30]: -0.443 | glycan array binding signal (z-score) [31]: 0.269 | glycan array binding signal (z-score) [32]: -0.584 | glycan array binding signal (z-score) [33]: -1.02 | glycan array binding signal (z-score) [34]: 1.23 | glycan array binding signal (z-score) [35]: -0.628 | glycan array binding signal (z-score) [36]: -0.565 | glycan array binding signal (z-score) [37]: 0.634 | glycan array binding signal (z-score) [38]: -0.62 | glycan array binding signal (z-score) [39]: 0.394 | glycan array binding signal (z-score) [40]: -0.982 | glycan array binding signal (z-score) [41]: -0.311 | glycan array binding signal (z-score) [42]: -1.01 | glycan array binding signal (z-score) [43]: -0.114 | glycan array binding signal (z-score) [44]: -1.55 | glycan array binding signal (z-score) [45]: 0.196 | glycan array binding signal (z-score) [46]: -0.322 | glycan array binding signal (z-score) [47]: 1.38 | glycan array binding signal (z-score) [48]: 0.276 | glycan array binding signal (z-score) [49]: -0.005 | glycan array binding signal (z-score) [50]: 2.02 | glycan array binding signal (z-score) [51]: 0.27 | glycan array binding signal (z-score) [52]: -0.302 | glycan array binding signal (z-score) [53]: 0.658 | glycan array binding signal (z-score) [54]: -0.21 | glycan array binding signal (z-score) [55]: -0.968 | glycan array binding signal (z-score) [56]: 0.705 | glycan array binding signal (z-score) [57]: 1.48 | glycan array binding signal (z-score) [58]: -0.395 | glycan array binding signal (z-score) [59]: -0.539 | glycan array binding signal (z-score) [60]: -0.398 | glycan array binding signal (z-score) [61]: -0.229 | glycan array binding signal (z-score) [62]: -0.59 | glycan array binding signal (z-score) [63]: -0.997 | glycan array binding signal (z-score) [64]: 0.698 | glycan array binding signal (z-score) [65]: 2.11 | glycan array binding signal (z-score) [66]: -0.33 | glycan array binding signal (z-score) [67]: -0.271 | glycan array binding signal (z-score) [68]: -0.269 | glycan array binding signal (z-score) [69]: -0.499 | glycan array binding signal (z-score) [70]: -0.026 | glycan array binding signal (z-score) [71]: -0.585 | glycan array binding signal (z-score) [72]: -1.29 | glycan array binding signal (z-score) [73]: 2.03 | glycan array binding signal (z-score) [74]: 2.63 | glycan array binding signal (z-score) [75]: 0.218
